Tests used:
[1] = in vitro; details: human
Procedure: (§1) Human breast cancer cell line MCF-7 and normal breast cell line MCF-10a were obtained from American type culture collection, MCF-7 cells were cultured using Dulbecco’s Modified Eagle Medium DMEM (Invitrogen/Life Technologies) supplemented with 10% FBS (Hyclone), 10 µg/ml of insulin (Sigma), and 1% penicillin-streptomycin. MCF-10a cell line was cultured using DMEM medium supplemented with 10% FBS, 1% sodium pyruvate, 1% MEM NEAA, 20 ng/ml human epidermal growth factor (HEGF), 10 μg/ml insulin and 0.05 mM hydrocortisone. The cells were incubated at 37 °C in a humidified atmosphere of 5% CO2.
(§2) The anticancer effect of phenoxychalcones and N-acetylpyrazolines on the viability of both tumour and normal cells was evaluated using МТТ assay as a rapid colorimetric assay. It is based on the ability of mitochondrial dehydrogenases of viable cells to reduce yellow tetrazolium salt MTT to blue formazan in quantities proportional to the number of living cells. […] The viability of cells was estimated by measuring the absorbance at 570 nm using a Bioline ELIZA plate reader. The cell viability percentage was calculated based on the absorbance ratio between cell culture treated with the compounds and the untreated control multiplied by 100. Selectivity index (SI) was calculated as the ratio of cytotoxicity (IC50) on normal cells (MCF-10a) to cancer cells (MCF-7).

[2] = test system: MCF-7 breast cancer cell line; assay: MTT assay, cytotoxicity against breast cancer cell line MCF-7
Procedure: as §1, §2

Question: With CN[C@@H]1C[C@H]2O[C@@](C)([C@@H]1OC)n1c3ccccc3c3c4c(c5c6ccccc6n2c5c31)C(=O)NC4 [Staurosporine, reference compound] as the compound, how does the IC50 [1] read?
Answer: 15.3 ± 0.51 µM

Question: What about the IC50 ([2]; Homo sapiens, MCF7, 48 h, read-out: In vitro cytotoxicity IC50 MCF-7) of the same compound?
Answer: 5.9 ± 0.14 µM

Question: What about the Selectivity index ([2]; ratio of IC50 on normal cells (MCF-10a) to cancer cells (MCF-7)) of the same compound?
Answer: 2.60

From article PMC8667918, “Synthesis and biological evaluation of halogenated phenoxychalcones and their corresponding pyrazolines as cytotoxic agents in human breast cancer” (Journal of Enzyme Inhibition and Medicinal Chemistry, 2021)
